At least one compound was matched to its structure with a doubt left. Some results were stated once for a whole list of compounds, not compound by compound. At least one peptide structure holds a part that was inferred or is arguable (an end, a ring closure or a residue). Some compounds share one range, which may span the group rather than tell each member. Square brackets hold non-standard residues; d marks the D form. Peptide text beside a SMILES is read from it.
Tested on: B16 F10 mouse melanoma cell line
Experiment: In vitro anticancer activity, Trypan blue cell viability, LC50
Conditions: for Fold lower concentration active against melanoma cell line than against NIH-3T3 normal fibroblast cell line: B16 F10 vs NIH-3T3
Procedure: The anticancer activity of the diastereomers 1, 2, 8, 9 and 10 was examined against B16 F10 mouse melanoma cell line. Melanoma cells were grown in RPMI-1640 medium supplemented with 10% fetal calf serum and antibiotics, at 37° C., in humidified atmosphere at 5% CO2 and 95% air. In addition, the cell-selectivity of the diastereomeric peptides was studied by examining their effect on NIH-3T3 normal fibroblasts cell line. NIH-3T3 mouse fibroblasts cells were grown in DMEM medium supplemented with 10% bovine calf serum and antibiotics under the same conditions as described above for B16 F10 mouse melanoma cells. Melanoma cells (2×10^5 cells ml^−1) or NIH-3T3 cells (2.5×10^5 cells ml^−1) were seeded in tissue culture plates (3.5 cm). After 48 h, cells were washed thrice with the corresponding medium. Then the cells were incubated at 37° C. in medium (without serum and antibiotics) in the presence of the tested diastereomeric peptides dissolved in PBS, at different concentrations. […] Following 24 h of incubation, the cells were harvested with trypsin (0.25%)-EDTA (0.05%) and centrifuiged for 10 min at 270×g. The precipitated cells were suspended in the corresponding medium and counted in a hemocytometer (Neubauer). Cell viability was determined by Trypan blue dye exclusion.

| Compound | Fold lower concentration active against melanoma cell line than against NIH-3T3 normal fibroblast cell line | Lethal Concentration (LC50), B16-F10 melanoma (50% cell mortality after 24 h incubation, medium without serum) |
| --- | --- | --- |
| CC(C)C[C@H](NC(=O)[C@H](CCCCN)NC(=O)[C@H](CC(C)C)NC(=O)[C@@H](CC(C)C)NC(=O)[C@H](CC(C)C)NC(=O)[C@@H](N)CCCCN)C(=O)N[C@@H](CC(C)C)C(=O)N[C@H](CCCCN)C(=O)N[C@H](CCCCN)C(=O)N[C@@H](CC(C)C)C(=O)N[C@@H](CC(C)C)C(=O)N[C@@H](CCCCN)C(=O)N[C@H](CC(C)C)C(=O)N[C@@H](CC(C)C)C(=O)N[C@@H](CCCCN)C(N)=O [Peptide 2, [D]-L^3,13,K^8,9-K6L9] (H-KL[dL]LKLL[dK][dK]LLK[dL]LK-NH2) | 3-15 fold |  |
| CC(C)C[C@H](NC(=O)CN)C(=O)N[C@H](CC(C)C)C(=O)N[C@@H](CCCCN)C(=O)N[C@@H](CC(C)C)C(=O)N[C@@H](CC(C)C)C(=O)N[C@H](CCCCN)C(=O)N[C@H](CCCCN)C(=O)N[C@@H](CC(C)C)C(=O)N[C@H](CC(C)C)C(=O)N[C@@H](CCCCN)C(=O)N[C@@H](CC(C)C)C(=O)N[C@H](CC(C)C)C(=O)N[C@@H](CC(C)C)C(=O)N[C@@H](CCCCN)C(=O)N[C@@H](CCCCN)C(N)=O [Peptide 8, [D]-L^3,10,13,K^7,8-GK6L9] (H-GL[dL]KLL[dK][dK]L[dL]KL[dL]LKK-NH2; N-terminus assumed) | 3-15 fold |  |
| CC(C)C[C@H](NC(=O)[C@H](CCCNC(=N)N)NC(=O)[C@@H](CC(C)C)NC(=O)[C@H](CC(C)C)NC(=O)[C@@H](N)CCCCN)C(=O)N[C@@H](CC(C)C)C(=O)N[C@H](CCCCN)C(=O)N[C@H](CCCCN)C(=O)N[C@@H](CC(C)C)C(=O)N[C@H](CC(C)C)C(=O)N[C@@H](CCCNC(=N)N)C(=O)N[C@@H](CC(C)C)C(=O)N[C@H](CC(C)C)C(=O)N[C@@H](CC(C)C)C(=O)N[C@@H](CCCCN)C(N)=O [Peptide 9, [D]-L^3,10,13,K^7,8-K4R2L9] (H-KL[dL]RLL[dK][dK]L[dL]RL[dL]LK-NH2) | 3-15 fold |  |
| CC(C)C[C@H](NC(=O)[C@H](CC(C)C)NC(=O)[C@@H](CCCCN)NC(=O)[C@@H](CCCCN)NC(=O)[C@H](CC(C)C)NC(=O)[C@@H](CC(C)C)NC(=O)[C@H](CCCCN)NC(=O)[C@H](CC(C)C)NC(=O)[C@@H](CC(C)C)NC(=O)[C@H](CC(C)C)NC(=O)[C@@H](N)CCCCN)C(=O)N[C@@H](CCCCN)C(=O)N[C@H](CC(C)C)C(=O)N[C@@H](CC(C)C)C(=O)N[C@@H](CCCCN)C(N)=O [Peptide 10, [D]-L^3,6,13,K^8,9,13-K6L9] (H-KL[dL]LK[dL]L[dK][dK]LLK[dL]LK-NH2; N-terminus assumed) | 3-15 fold | 9 µg/mL |
